Reference: PubChem BioAssay AID504834 (National Center for Advancing Translational Sciences (NCATS), 2011)
Among all 320,000 compounds or so, about 22,000 (6.9%) were called active. This list was built around the results that the source calls inconclusive (neither active nor inactive); the mix of calls is not that of the screen. The call rests on the fitted dose curve; in most records, active means well fitted inhibition curve with a large enough effect; inconclusive means small, poorly fitted or top-dose-only effect, or another doubt; inactive means no such curve, though single readings can be large or run the other way. Potencies beside an inconclusive call are fits to weak or partial responses and may not hold up.

Assay: Primary qHTS for delayed death inhibitors of the malarial parasite plastid, 96 hour incubation
Details: P. falciparum luciferase reporter growth; series mostly up to 28.7 µM
Summary of the method: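 96 h incubation, 37 C, 5% CO2, of luciferase-reporter P. falciparum-infected RBCs (2% hematocrit, 0.05% parasitemia final) with test compounds; endpoint luminescence.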
Potency means the concentration at half of the fitted maximal effect.

Row | SMILES | Potency
1 | COCCNC(=O)/C(C#N)=C/c1c(N2CCN(c3ccc(OC)cc3)CC2)nc2c(C)cccn2c1=O | inconclusive: 13.1 µM [inhibitor, partial curve]
2 | COc1ccc([N+](=O)[O-])cc1NC(=O)C1CCCCC1C(=O)O (stereo unspecified) | inactive
3 | OC(Cc1ccncc1)(c1ccccc1)c1ccccc1 | inconclusive: 0.37 µM [inhibitor, full curve]
4 | COC(=O)CN(C#N)c1nc(NCc2ccccc2)nc(OC)n1 | inconclusive: 11.7 µM [inhibitor, partial curve, poor fit]
5 | COc1ccc(NC(=O)CC2C(=O)N(c3ccccc3)C(=O)N2CCc2cccs2)cc1 (stereo unspecified) | inconclusive: 1.47 µM [inhibitor, partial curve, poor fit]
6 | Cc1cccc(NC(=O)Cn2nc(-c3ccco3)ccc2=O)c1C | inactive
7 | O=[N+]([O-])c1ccc(O)c(C2=NNC(c3ccccc3F)C2)c1 (stereo unspecified) | inactive
8 | C/C=C1\C(OC2OC(CO)C(O)C(O)C2O)OC=C(C(=O)OC)C1CC(=O)OCC1C(C)C(OC(=O)CC2C(C(=O)OC)=COC(OC3OC(CO)C(O)C(O)C3O)/C2=C\C)CC1C(CO)CO (stereo unspecified) | inactive
9 | COc1ccc(/C=C/C(=O)CC(O)(c2ccccc2)C(F)(F)F)cc1 (stereo unspecified) | inconclusive: 10.4 µM [inhibitor, single point]
10 | O=C(Oc1ccnc2cc(Cl)ccc12)N1CCOCC1 | inconclusive: 9.28 µM [inhibitor, partial curve, poor fit]
11 | CCN(CC)CC#CCOC(=O)[C@@](O)(c1ccccc1)C1CCCCC1 | active: 12 µM
12 | CN(C)c1ccc(/C=N/NC(=O)C2CC2c2ccccc2)cc1 (stereo unspecified) | inactive
13 | O=C(NC(=S)Nc1ccc(CN2CCOCC2)cc1)c1ccc([N+](=O)[O-])cc1 | inconclusive: 10.4 µM [inhibitor, single point]
14 | COc1ccc(OC)c(S(=O)(=O)n2nnc3ccccc32)c1 | inconclusive: 18.5 µM [inhibitor, single point]
15 | CNC(=O)Nc1cc(C(F)(F)F)cc(C(F)(F)F)c1 | inconclusive: 14.7 µM [inhibitor, partial curve, poor fit]
16 | O=C(Cc1cc(=O)[nH][nH]1)N/N=C/c1ccccc1Cl | inactive
17 | CCc1ccc(CN(Cc2cccnc2)C(=O)/C=C/c2ccc(OC)cc2)cc1 | inconclusive: 16.5 µM [inhibitor, single point]
18 | CCc1ccccc1NC(=O)CCc1c(C)nc(SC)nc1C | inconclusive: 10.4 µM [inhibitor, partial curve, poor fit]
19 | O=C(c1cc2ccccc2oc1=O)N1CCN(Cc2ccc3c(c2)OCO3)CC1 | inconclusive: 11.7 µM [inhibitor, single point]
20 | Clc1cccc(Cl)c1/C=N\Nc1nccs1 | active: 9.28 µM
21 | COCCCNC(=O)COc1ccc(-c2nccc(-c3ccccn3)n2)cc1 | inconclusive: 18.5 µM [inhibitor, partial curve, poor fit]
22 | COc1ccc(C2CCCN2C(=O)c2cccs2)cc1 (stereo unspecified) | inconclusive: 3.7 µM [inhibitor, single point]
23 | CC(=O)c1ccc2c(c1)OCO2 | inactive
24 | CSCCC(NC(=O)C12CC3CC(CC(C3)C1)C2)C(=O)OCC(=O)c1ccc(C)cc1 (stereo unspecified) | active: 0.329 µM

Sorted by molar mass (low to high): five of the compounds above
Row | SMILES | Potency
23 | CC(=O)c1ccc2c(c1)OCO2 | inactive
12 | CN(C)c1ccc(/C=N/NC(=O)C2CC2c2ccccc2)cc1 (stereo unspecified) | inactive
6 | Cc1cccc(NC(=O)Cn2nc(-c3ccco3)ccc2=O)c1C | inactive
18 | CCc1ccccc1NC(=O)CCc1c(C)nc(SC)nc1C | inconclusive: 10.4 µM [inhibitor, partial curve, poor fit]
13 | O=C(NC(=S)Nc1ccc(CN2CCOCC2)cc1)c1ccc([N+](=O)[O-])cc1 | inconclusive: 10.4 µM [inhibitor, single point]

Remaining list, next part:

Row | SMILES | Potency
25 | CCC(C(=O)OCC(=O)NC(=O)c1ccccc1)c1ccccc1 (stereo unspecified) | inactive
26 | COc1ccc(OC)c(C2SCCN2S(=O)(=O)c2cccc(C(F)(F)F)c2)c1 (stereo unspecified) | inconclusive: 3.7 µM [inhibitor, full curve]
27 | COP(=O)(OC)c1nc(-c2ccccc2)oc1NCc1ccccc1 | inconclusive: 16.5 µM [inhibitor, single point]
28 | CCn1c(=O)cc(OCC(=O)Nc2nc(C)cs2)c2ccccc21 | active: 2.08 µM
29 | CC(C)c1csc(CN2CCCC(CCC(=O)NCc3ccccc3F)C2)n1 (stereo unspecified) | inconclusive: 18.5 µM [inhibitor, single point]
30 | CCCc1ccc(S(=O)(=O)N(C)S(=O)(=O)c2ccc(F)cc2)cc1 | inconclusive: 18.5 µM [inhibitor, single point]
31 | COCCNC(=O)c1ccccc1-c1nc(-c2ccccc2OC)no1 | inconclusive: 3.7 µM [inhibitor, partial curve]
32 | Cc1ccccc1CNC(=O)C(=O)NCCC1CCCCN1S(=O)(=O)c1ccccc1 (stereo unspecified) | inconclusive: 0.233 µM [inhibitor, full curve, poor fit]
33 | Cc1cccc(N/C(N)=N/c2nc(C)cc(C)n2)c1 | inactive
34 | COc1cc([N+](=O)[O-])ccc1-c1ccc(/C=N/NC(=O)c2ccccc2O)o1 | inconclusive: 2.62 µM [inhibitor, full curve, poor fit]
35 | COC(=O)C1=C(C)NC(=S)NC1c1ccc(-c2ccccc2C(=O)OC)o1 (stereo unspecified) | inconclusive: 11.7 µM [inhibitor, partial curve, poor fit]
36 | COc1ccc(NC(=O)CSc2nc3ccccc3c(=O)n2CCCN2CCOCC2)c(OC)c1 | inconclusive: 3.7 µM [inhibitor, partial curve, poor fit]
37 | CC1(C)C(C(=O)NCc2ccco2)C1(C)C | inconclusive: 18.5 µM [inhibitor, single point]
38 | CCCCc1ccc(NC(=S)NCc2ccccc2OC)cc1 | inactive
39 | Cc1ccc(N2CCN(/N=C/C=C/c3ccccc3)CC2)cc1 | inactive
40 | CCn1cc(C(=O)NCCCOC)c(=O)c2cc(S(=O)(=O)N(C)C)ccc21 | inconclusive: 11.7 µM [inhibitor, single point]
41 | COC(=O)c1[nH]c2ccccc2c1NC(=O)CN1CCCCCC1 | inconclusive: 13.1 µM [inhibitor, single point]
42 | Brc1c(C[n+]2ccccc2)nc2ccccn12 | inconclusive: 0.104 µM [inhibitor, partial curve, poor fit]
43 | CCN(CC)CCCNC(=S)N(CCO)Cc1cc2cc3c(cc2[nH]c1=O)OCO3 | inconclusive: 14.7 µM [inhibitor, partial curve, poor fit]
44 | O=C(COC(=O)c1ccccc1Nc1ccccc1F)c1ccccc1 | inactive
45 | CCN(CC)CCCn1c2c(c(SCC(=O)Nc3cccc4ccccc34)nc1=O)CCC2 | inconclusive: 11.7 µM [inhibitor, partial curve]
46 | CCCN1CCN(CC(=O)Nc2nnc(CC)s2)CC1 | inconclusive: 18.5 µM [inhibitor, single point]
47 | CC(NC(=O)c1cc(S(=O)(=O)N(C)C)ccc1Cl)C1CC2CCC1C2 (stereo unspecified) | inconclusive: 14.7 µM [inhibitor, partial curve, poor fit]
48 | N#Cc1ccc(OCC(=O)Nc2nc(-c3ccncc3)cs2)cc1 | inconclusive: 4.65 µM [inhibitor, partial curve, poor fit]

Row | SMILES | Potency
49 | OCCC1CN(Cc2ccc(F)cc2)CCN1CCc1ccccc1 (stereo unspecified) | inconclusive: 4.65 µM [inhibitor, partial curve]
50 | O=C(c1ccccc1)c1sc(N2CCOCC2)nc1-c1ccccc1 | inconclusive: 13.1 µM [inhibitor, single point]
51 | Cc1ccc2cc(CCNC(=O)c3ccc4c(c3)OCO4)c(=O)[nH]c2c1C | inconclusive: 18.5 µM [inhibitor, single point]
52 | Cc1ccc(C(=O)Nc2cccnc2)cc1S(=O)(=O)N1CCCCC1 | active: 2.08 µM
53 | Cn1c(=O)c(C(=O)CCl)c(N)n(CC2CC2)c1=O | inconclusive: 18.5 µM [inhibitor, single point]
54 | C=CCSC1=N/C(=C\c2ccc(C)o2)C(=O)S1 | inactive
55 | COc1cc(N2C(=O)c3ccccc3C2=O)c(Cl)cc1C(=O)OCC(=O)N(C)C | inactive
56 | COc1nnc(-c2ccc(N3CCOCC3)c(NC(C)=O)c2)c2ccccc12 | inconclusive: 11.7 µM [inhibitor, single point]
57 | COc1ccc(S(=O)(=O)N2CCCC2CNC(=O)C(=O)NCc2ccccn2)cc1 (stereo unspecified) | inactive
58 | COCCNC(=O)CSc1nc2cc(OC)c(OC)cc2c(=O)n1CCc1ccc(S(N)(=O)=O)cc1 | inconclusive: 10.4 µM [inhibitor, single point]
59 | COc1ccccc1-c1nnc2n1N=C(C)CS2 | inconclusive: 0.0738 µM [inhibitor, full curve, poor fit]
60 | CC1(c2ccc(Cl)cc2)NC(=O)N(CC(=O)Nc2cccnc2Cl)C1=O (stereo unspecified) | inactive
61 | CC(C)OCCCNC(=O)Nc1cccc2ccccc12 | inactive
62 | O/N=C(\c1ccc(Cl)cc1Cl)c1ncc(C(F)(F)F)cc1Cl | inconclusive: 10.4 µM [inhibitor, single point]
63 | O=C(NC(Cc1c[nH]c2ccccc12)C(=O)NCc1ccc(F)cc1)OCc1ccccc1 (stereo unspecified) | inactive
64 | Cc1cc(C)c2cc(CN(CC3CCCO3)C(=S)NCc3ccco3)c(=O)[nH]c2c1 (stereo unspecified) | inconclusive: 4.65 µM [inhibitor, partial curve, poor fit]
65 | COc1ccc(COc2ccsc2C(=O)Nc2ccc(Cl)c(Cl)c2)cc1 | inactive
66 | Cc1ccnc(SCCn2c(N3CCCCC3)nc3c2c(=O)n(C)c(=O)n3C)n1 | inconclusive: 0.147 µM [inhibitor, full curve]
67 | COc1ccc(NC(=O)CN2C(=O)COc3ccc(S(=O)(=O)N4CCOCC4)cc32)cc1 | inactive
68 | O=C(COC(=O)Cc1ccc(F)cc1)NC1CCCCC1 | inactive
69 | O=C(CN1CCOCCOCCOCC1)Nc1ccccc1 | inactive
70 | Cc1noc(C)c1-c1ccc2ncnc(NCC3CCCCN3C)c2c1 (stereo unspecified) | active: 2.33 µM
71 | Cc1ccc2[nH]cc(CCNC(=O)C3CCCCC3)c2c1 | inactive
